According to doi:10.1101/2022.09.01.506260:
Results are given in words; binding and its absence hold for the method and conditions named. In cells and extracts the contact can be indirect. Some entries that bind do so weakly or less than the wild type. Sequences can lack the tags named with a protein.

Tests used:
Experiment in all cases: co-IP
[1] = target: T1, HA-tagged PEAK3^FL WT (human), Q6ZS72; conditions: remark: other sources report otherwise
T1 chain: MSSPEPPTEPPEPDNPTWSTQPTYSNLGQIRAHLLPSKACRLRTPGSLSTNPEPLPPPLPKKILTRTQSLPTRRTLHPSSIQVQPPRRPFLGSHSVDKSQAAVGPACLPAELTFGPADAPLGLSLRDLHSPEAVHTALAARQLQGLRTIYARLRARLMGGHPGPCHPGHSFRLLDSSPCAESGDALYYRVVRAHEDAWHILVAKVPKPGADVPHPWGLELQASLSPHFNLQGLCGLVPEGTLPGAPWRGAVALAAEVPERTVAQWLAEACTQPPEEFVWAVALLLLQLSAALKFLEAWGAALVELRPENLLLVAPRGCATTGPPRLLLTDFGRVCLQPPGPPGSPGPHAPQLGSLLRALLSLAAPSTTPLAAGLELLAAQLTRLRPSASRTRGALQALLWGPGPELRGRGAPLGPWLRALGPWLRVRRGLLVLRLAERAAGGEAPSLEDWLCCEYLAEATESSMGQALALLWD

[2] = target: T2, HA-tagged PEAK3^FL-C453E dimerization mutant (human) (UniProt Q6ZS72)
T2 sequence: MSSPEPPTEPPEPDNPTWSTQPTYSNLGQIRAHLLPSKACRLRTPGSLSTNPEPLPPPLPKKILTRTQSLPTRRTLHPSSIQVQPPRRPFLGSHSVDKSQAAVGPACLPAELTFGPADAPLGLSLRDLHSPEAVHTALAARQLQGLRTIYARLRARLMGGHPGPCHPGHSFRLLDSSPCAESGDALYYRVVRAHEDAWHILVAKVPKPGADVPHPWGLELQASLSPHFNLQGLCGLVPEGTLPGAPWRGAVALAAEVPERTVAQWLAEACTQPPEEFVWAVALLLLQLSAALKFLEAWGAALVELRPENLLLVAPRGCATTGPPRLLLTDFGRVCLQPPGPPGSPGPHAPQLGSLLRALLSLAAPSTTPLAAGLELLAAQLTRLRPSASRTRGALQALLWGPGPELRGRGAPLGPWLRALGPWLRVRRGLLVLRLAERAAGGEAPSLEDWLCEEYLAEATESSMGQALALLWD

[3] = target: T3, HA-tagged PEAK3^FL-A436E dimerization mutant (human) (UniProt Q6ZS72)
T3 sequence: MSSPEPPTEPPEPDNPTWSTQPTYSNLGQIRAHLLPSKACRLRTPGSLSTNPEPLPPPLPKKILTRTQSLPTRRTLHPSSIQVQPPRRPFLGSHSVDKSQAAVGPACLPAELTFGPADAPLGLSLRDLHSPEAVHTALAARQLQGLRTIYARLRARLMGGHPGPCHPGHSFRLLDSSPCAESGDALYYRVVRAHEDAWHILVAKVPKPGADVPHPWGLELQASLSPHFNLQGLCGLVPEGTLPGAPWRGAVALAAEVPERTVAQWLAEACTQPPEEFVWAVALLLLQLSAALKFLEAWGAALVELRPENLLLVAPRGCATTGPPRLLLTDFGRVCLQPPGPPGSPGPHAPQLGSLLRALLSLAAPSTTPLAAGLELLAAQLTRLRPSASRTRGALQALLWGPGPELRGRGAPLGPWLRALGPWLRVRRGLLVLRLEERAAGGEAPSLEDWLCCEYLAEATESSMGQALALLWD

[4] = target: T4, HA-tagged PEAK3^FL-L146E dimerization mutant (human) (UniProt Q6ZS72)
T4 sequence: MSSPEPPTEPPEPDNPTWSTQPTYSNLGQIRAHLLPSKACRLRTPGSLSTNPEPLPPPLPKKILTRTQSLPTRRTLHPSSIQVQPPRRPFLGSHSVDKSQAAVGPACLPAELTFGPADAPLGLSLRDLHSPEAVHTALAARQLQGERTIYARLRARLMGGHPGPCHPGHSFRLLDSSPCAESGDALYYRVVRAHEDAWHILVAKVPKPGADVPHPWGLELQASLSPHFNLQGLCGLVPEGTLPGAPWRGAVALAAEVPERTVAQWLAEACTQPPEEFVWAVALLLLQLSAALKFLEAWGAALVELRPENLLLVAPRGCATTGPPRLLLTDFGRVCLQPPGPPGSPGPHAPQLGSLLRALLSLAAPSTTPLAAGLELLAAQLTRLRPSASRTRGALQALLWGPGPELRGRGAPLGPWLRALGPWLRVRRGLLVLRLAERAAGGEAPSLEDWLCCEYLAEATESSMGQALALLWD

Binder	binding [1]	binding [2]	binding [3]	binding [4]
endogenous CrkII (HEK293), P46108-1 1-304 (protein) MAGNFDSEERSSWYWGRLSRQEAVALLQGQRHGVFLVRDSSTSPGDYVLSVSENSRVSHYIINSSGPRPPVPPSPAQPPPGVSPSRLRIGDQEFDSLPALLEFYKIHYLDTTTLIEPVSRSRQGSGVILRQEEAEYVRALFDFNGNDEEDLPFKKGDILRIRDKPEEQWWNAEDSEGKRGMIPVPYVEKYRPASASVSALIGGNQEGSHPQPLGGPEPGPYAQPSVNTPLPNLQNGPIYARVIQKRVPNAYDKTALALEVGELVKVTKINVSGQWEGECNGKRGHFPFTHVRLLDQQNPDEDFS	binds	–	–	–
Flag-tagged PEAK3^FL WT (protein, UniProt Q6ZS72 1-473) MSSPEPPTEPPEPDNPTWSTQPTYSNLGQIRAHLLPSKACRLRTPGSLSTNPEPLPPPLPKKILTRTQSLPTRRTLHPSSIQVQPPRRPFLGSHSVDKSQAAVGPACLPAELTFGPADAPLGLSLRDLHSPEAVHTALAARQLQGLRTIYARLRARLMGGHPGPCHPGHSFRLLDSSPCAESGDALYYRVVRAHEDAWHILVAKVPKPGADVPHPWGLELQASLSPHFNLQGLCGLVPEGTLPGAPWRGAVALAAEVPERTVAQWLAEACTQPPEEFVWAVALLLLQLSAALKFLEAWGAALVELRPENLLLVAPRGCATTGPPRLLLTDFGRVCLQPPGPPGSPGPHAPQLGSLLRALLSLAAPSTTPLAAGLELLAAQLTRLRPSASRTRGALQALLWGPGPELRGRGAPLGPWLRALGPWLRVRRGLLVLRLAERAAGGEAPSLEDWLCCEYLAEATESSMGQALALLWD	–	no binding	no binding	no binding
